Assay results from article PMC12507909.
Results are given in words; binding and its absence hold for the method and conditions named. In cells and extracts the contact can be indirect. These calls come from enrichment with a bait or labelling near it, and not all partners need be listed.

Chains of the proteins cited; added tags and fusions are not shown.
UniProt Q99623: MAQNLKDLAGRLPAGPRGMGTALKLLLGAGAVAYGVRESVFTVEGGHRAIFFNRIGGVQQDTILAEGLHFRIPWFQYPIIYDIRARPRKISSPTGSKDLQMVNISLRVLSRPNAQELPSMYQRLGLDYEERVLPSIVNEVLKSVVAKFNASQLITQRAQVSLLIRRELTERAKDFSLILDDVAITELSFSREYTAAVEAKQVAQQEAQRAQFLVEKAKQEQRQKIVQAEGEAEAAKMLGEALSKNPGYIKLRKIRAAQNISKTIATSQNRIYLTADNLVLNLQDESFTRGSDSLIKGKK

Target: prohibitin-2 (PHB2) on JK-1 cells (human (endogenous in JK-1)) (UniProt Q99623)
Assay: proximity labelling; JK-1 cells incubated with PvRBP1a_(158-650)LTID or LTID at 3 µM for 3 hours, washed, biotinylation buffer 15 minutes at 37°C; biotinylated proteins enriched on streptavidin magnetic beads and identified by DDA LC-MS, validated by PRM LC-MS; duplicates; only the binder purified

With “PvRBP1a_(158-650)LTID fusion protein (from UniProt Q5DSE1) (domain or fragment)” the binding was “binds”.
